Data set [1] is described as follows: Bottom gate-top contact organic FET, film formed by vapor deposition method: carrier mobility and ON/OFF ratio. As to conditions: thickness 75 nm. As for the experimental part: Device preparation by the application method was not possible with regard to the chalcogen-containing organic compound in Comparative Example 1. Therefore, a device was prepared by the vapor deposition method for the chalcogen-containing organic compounds in Examples 1, 3, 4, 7 and Comparative Example 1, and FET characteristics were compared.
Ultrasonic cleaning was performed to a silicon substrate with the thermally oxidized silicon insulating film (film thickness: 500 nm) described above for 5 minutes using acetone and 2-propanol for each, and subsequently UV ozone treatment was performed for 30 minutes. On a surface of the substrate subjected to cleaning treatment, a self-assembled monolayer of DTS was formed according to a vapor method, and then a chalcogen-containing organic compound was vapor-deposited at a vapor deposition rate of 0.4 to 0.6 Å/s to form an organic semiconductor layer having a film thickness of 75 nm. Subsequently, a carrier injection layer (film thickness: 1 nm) of tetrafluorotetracyanoquinodimethane was formed through a stainless-steel metallic mask, and subsequently a gold source electrode and a gold drain electrode (film thickness: 30 nm) were vapor-deposited in vacuo to form a channel length of 100 μm and a channel width of 1 mm and to prepare a bottom gate-top contact type organic FET.
Carrier mobility and an ON/OFF ratio were measured on the thus prepared device using Semiconductor Parameter Analyzer (model number “Keithley 4200”, made by Keithley Instruments Inc.).

Data set [2] is described as follows: Bottom gate-top contact organic FET, film formed by edge-cast method: carrier mobility and ON/OFF ratio. The settings on record: 0.2 mass % solution, DTS-treated Si/SiO2 substrate. As for the experimental part:
In accordance with an application method (edge-cast method; Appl. Phys. Exp. 2, 111501 (2009)) developed by the present inventors, film formation and preparation of a bottom gate-top contact type organic FET were performed.
Surface treatment was performed to a silicon substrate (made by Fujimi Fine Technology Inc.) by decyltriethoxysilane (DTS) to obtain a silicon substrate (hereinafter, also referred to as “substrate”) with a thermally oxidized silicon insulating film (film thickness: 500 nm). On the substrate, a solution-holding silicon substrate fragment (hereinafter, also referred to as “solution holding structure”) was placed. While inclining the substrate, an 1,2-dimethoxybenzene solution of a chalcogen-containing organic compound synthesized in Examples or a 1,2-dichloroethane solution thereof (concentration of chalcogen-containing organic compound: 0.2 mass %) (organic semiconductor solution) was dripped at 120° C. onto an edge of the solution holding structure. While a crystal grew with evaporation of the solvent, the crystal stuck to the substrate, and crystal growth was completed in several minutes. In this state, the grown crystal was allowed to stand overnight (11 hours) under argon atmosphere at 60 to 100° C. to completely dry a crystal film (film thickness: 30 to 150 nm). On the crystal film obtained, a carrier injection layer (film thickness: 1 nm) of tetrafluorotetracyanoquinodimethane was formed through a stainless-steel metallic mask, and subsequently a gold source electrode and a gold drain electrode (film thickness: 30 nm) were vapor-deposited in vacuo to form a channel length of 100 μm and a channel width of 1 mm and to prepare a bottom gate-top contact type organic FET. Carrier mobility and an ON/OFF ratio were measured on the thus prepared device using Semiconductor Parameter Analyzer (model number “Keithley 4200”, made by Keithley Instruments Inc.).
Preparation of the organic transistor device and evaluation of characteristics thereof as described above were performed on the compounds obtained in Examples 2, 3 to 5. In addition, in the compound of Comparative Example 1, preparation of a two-dimensional crystal film with high quality was not allowed according to the solution process, and film formation by the above application method was difficult. As a result, with regard to the compound in Comparative Example 1, preparation of the organic transistor device by the above application method and evaluation of the characteristics thereof were not possible.

Molecules are shown by their SMILES.

Regarding `c1ccc2cc3c(cc2c1)sc1cc2c(cc13)sc1cc3ccccc3cc12` [Comparative Example 1, dinaphtho[2,3-d:2′,3′-d′]benzo[1,2-b:4,5-b′]dithiophene, reference compound], in data set [1], the Carrier mobility is on record as 0.08 cm^2/V·s and the ON-OFF ratio is given as 10^4.

Regarding `CCCCCCCCCCc1ccc2cc3oc4cc5c(cc4c3cc2c1)oc1cc2ccc(CCCCCCCCCC)cc2cc15` [Example 1, 2,10-didecyldinaphtho[2,3-d:2′,3′-d′]benzo[1,2-b:4,5-b′]difuran], in data set [1], the Carrier mobility was 0.78 cm^2/V·s and the ON-OFF ratio is given as 10^5.

Turning to `CCCCCCCCCCc1ccc2cc3c(cc2c1)oc1cc2c(cc13)oc1cc3cc(CCCCCCCCCC)ccc3cc12` [Example 3, 3,11-didecyldinaphtho[2,3-d:2′,3′-d′]benzo[1,2-b:4,5-b′]difuran], in data set [2], the Carrier mobility came to 0.50 cm^2/V·s and the ON-OFF ratio is 10^5 10^5. For the same compound, in data set [1], the Carrier mobility was 0.24 cm^2/V·s and the ON-OFF ratio is 10^5 10^5.

Turning to `CCCCCCc1ccc2cc3c(cc2c1)sc1cc2c(cc13)sc1cc3cc(CCCCCC)ccc3cc12` [Example 5, 3,11-dihexyldinaphtho[2,3-d:2′,3′-d′]benzo[1,2-b:4,5-b′]dithiophene], in data set [2], the Carrier mobility came out at 1.3 cm^2/V·s and the ON-OFF ratio was 10^6.

Turning to `CCCCCCCCCCc1ccc2cc3c(cc2c1)sc1cc2c(cc13)sc1cc3cc(CCCCCCCCCC)ccc3cc12` [Example 4, 3,11-didecyldinaphtho[2,3-d:2′,3′-d′]benzo[1,2-b:4,5-b′]dithiophene], the Carrier mobility came out at 16 cm^2/V·s in data set [2] and 1.4 cm^2/V·s in data set [1]. In addition, the ON-OFF ratio is listed as 10^7 in data set [2] and 10^4 in data set [1].

As to `CCCCCCCCCCc1ccc2cc3c(cc2c1)sc1cc2cc4c(cc2cc13)sc1cc2cc(CCCCCCCCCC)ccc2cc14` [Example 7], in data set [1], the Carrier mobility is 0.90 cm^2/V·s and the ON-OFF ratio is 10^5.

On to `CCCCCCCCCCc1ccc2cc3sc4cc5c(cc4c3cc2c1)sc1cc2ccc(CCCCCCCCCC)cc2cc15` [Example 2, 2,10-didecyldinaphtho[2,3-d:2′,3′-d′]benzo[1,2-b:4,5-b′]dithiophene], for which, in data set [2], the Carrier mobility is 0.015 cm^2/V·s and the ON-OFF ratio is 10^5.

Source of the values: patent US9853225B2, “Chalcogen-containing organic compound and a use thereof” (JNC CORPORATION, priority 2013, dated 2017).
